Reference: paper PMC7575592
No constants are given. Whether binding was seen depends on the method and setting. Binding seen in cells or lysates may run through a third protein. Some results given as binding are weak or reduced against the parent protein; the word gives no strength.

Protein sequences, listed by entry. Tags and fused reporters are not part of them.
UniProt O95622: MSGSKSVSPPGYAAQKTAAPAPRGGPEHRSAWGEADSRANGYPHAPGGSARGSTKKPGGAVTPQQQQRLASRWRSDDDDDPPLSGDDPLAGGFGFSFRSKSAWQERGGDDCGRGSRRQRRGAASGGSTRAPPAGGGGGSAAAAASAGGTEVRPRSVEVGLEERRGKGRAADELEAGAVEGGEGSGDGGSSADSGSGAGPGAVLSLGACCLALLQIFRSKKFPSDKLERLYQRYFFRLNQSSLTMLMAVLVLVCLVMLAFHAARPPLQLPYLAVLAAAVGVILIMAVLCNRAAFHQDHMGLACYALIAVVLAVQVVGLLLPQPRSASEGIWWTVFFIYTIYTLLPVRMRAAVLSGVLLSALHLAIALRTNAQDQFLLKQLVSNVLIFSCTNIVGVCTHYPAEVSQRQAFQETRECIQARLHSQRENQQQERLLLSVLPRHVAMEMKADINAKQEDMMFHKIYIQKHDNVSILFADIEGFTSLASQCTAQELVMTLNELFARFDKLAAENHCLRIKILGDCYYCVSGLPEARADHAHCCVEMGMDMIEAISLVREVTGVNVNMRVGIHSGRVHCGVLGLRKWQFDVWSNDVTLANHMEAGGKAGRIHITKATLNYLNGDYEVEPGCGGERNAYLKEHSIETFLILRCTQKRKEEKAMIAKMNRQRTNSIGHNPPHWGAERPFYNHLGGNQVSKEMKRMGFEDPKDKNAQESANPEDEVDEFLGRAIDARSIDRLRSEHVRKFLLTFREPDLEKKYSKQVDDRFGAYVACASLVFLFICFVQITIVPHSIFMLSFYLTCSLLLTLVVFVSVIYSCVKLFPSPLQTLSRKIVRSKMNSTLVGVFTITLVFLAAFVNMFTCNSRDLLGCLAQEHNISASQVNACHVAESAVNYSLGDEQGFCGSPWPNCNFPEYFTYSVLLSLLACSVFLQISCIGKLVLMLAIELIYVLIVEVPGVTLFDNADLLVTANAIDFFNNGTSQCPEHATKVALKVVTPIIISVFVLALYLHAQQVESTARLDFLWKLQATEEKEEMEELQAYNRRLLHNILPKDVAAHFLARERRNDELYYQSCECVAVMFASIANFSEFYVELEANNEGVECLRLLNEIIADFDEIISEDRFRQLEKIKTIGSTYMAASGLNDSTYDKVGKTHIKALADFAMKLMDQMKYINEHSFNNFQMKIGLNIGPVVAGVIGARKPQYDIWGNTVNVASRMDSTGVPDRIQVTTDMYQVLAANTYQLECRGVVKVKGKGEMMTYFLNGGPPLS
UniProt P24588: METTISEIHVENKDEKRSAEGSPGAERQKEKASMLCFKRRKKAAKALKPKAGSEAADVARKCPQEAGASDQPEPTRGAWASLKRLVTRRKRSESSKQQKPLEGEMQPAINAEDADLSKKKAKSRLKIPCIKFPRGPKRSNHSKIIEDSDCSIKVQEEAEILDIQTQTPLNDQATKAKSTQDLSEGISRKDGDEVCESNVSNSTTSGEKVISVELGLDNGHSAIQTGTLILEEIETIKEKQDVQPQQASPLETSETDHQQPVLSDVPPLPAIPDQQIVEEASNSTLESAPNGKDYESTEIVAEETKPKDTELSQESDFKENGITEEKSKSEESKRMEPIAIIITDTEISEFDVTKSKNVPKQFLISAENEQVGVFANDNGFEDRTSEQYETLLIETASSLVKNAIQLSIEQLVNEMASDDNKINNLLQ
UniProt Q01815: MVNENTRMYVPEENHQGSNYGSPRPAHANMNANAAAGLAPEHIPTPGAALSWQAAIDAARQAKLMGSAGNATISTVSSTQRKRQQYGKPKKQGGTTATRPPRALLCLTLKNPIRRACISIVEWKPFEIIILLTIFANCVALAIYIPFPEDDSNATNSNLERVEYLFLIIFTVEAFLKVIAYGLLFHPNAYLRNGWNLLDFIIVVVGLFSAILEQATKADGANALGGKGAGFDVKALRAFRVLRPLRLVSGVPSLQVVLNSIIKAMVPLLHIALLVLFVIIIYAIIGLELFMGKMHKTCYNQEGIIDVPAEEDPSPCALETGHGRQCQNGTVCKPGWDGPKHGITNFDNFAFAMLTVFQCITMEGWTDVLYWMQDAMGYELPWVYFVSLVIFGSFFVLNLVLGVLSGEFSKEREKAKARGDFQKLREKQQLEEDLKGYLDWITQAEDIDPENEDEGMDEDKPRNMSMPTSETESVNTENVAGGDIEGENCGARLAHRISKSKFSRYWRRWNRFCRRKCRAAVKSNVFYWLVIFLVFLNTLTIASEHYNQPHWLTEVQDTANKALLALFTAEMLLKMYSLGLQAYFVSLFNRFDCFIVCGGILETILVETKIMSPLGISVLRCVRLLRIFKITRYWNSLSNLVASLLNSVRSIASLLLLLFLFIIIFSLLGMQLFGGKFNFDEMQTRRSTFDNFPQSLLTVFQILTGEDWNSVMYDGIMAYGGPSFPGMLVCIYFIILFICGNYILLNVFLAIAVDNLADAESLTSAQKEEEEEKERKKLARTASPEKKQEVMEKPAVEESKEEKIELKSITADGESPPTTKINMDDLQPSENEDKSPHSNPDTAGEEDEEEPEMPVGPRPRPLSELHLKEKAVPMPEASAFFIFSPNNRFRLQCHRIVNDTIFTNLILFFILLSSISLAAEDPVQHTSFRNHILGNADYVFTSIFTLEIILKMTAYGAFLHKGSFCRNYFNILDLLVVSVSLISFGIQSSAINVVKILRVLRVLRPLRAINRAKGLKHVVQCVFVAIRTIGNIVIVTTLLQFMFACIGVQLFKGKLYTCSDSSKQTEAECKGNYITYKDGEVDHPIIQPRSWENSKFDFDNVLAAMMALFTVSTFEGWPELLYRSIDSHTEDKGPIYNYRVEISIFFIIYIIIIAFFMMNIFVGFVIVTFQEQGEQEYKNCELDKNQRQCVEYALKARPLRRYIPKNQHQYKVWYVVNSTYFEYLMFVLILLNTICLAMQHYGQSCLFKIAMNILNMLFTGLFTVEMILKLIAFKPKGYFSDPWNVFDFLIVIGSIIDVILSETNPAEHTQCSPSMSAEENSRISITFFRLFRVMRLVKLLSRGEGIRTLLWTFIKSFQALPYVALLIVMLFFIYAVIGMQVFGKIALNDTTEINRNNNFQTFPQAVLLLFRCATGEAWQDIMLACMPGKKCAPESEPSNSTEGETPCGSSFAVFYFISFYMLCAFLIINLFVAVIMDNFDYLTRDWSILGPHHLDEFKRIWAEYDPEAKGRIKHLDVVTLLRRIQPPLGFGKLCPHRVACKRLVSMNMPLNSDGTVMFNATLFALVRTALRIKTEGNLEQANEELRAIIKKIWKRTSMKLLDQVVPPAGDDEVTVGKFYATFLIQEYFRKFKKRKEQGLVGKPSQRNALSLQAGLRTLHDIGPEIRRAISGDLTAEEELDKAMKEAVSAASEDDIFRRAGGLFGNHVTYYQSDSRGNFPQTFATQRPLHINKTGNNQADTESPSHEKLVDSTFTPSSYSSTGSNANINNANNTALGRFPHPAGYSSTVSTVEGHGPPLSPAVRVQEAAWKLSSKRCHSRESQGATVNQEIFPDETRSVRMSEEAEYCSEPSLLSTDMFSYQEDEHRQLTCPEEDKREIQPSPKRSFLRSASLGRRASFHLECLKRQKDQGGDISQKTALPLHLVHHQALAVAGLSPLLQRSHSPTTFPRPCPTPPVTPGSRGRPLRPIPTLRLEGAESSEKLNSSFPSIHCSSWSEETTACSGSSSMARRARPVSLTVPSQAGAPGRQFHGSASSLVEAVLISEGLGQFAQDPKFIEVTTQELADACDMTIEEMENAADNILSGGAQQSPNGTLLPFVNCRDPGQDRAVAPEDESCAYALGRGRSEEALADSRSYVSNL
UniProt P84309: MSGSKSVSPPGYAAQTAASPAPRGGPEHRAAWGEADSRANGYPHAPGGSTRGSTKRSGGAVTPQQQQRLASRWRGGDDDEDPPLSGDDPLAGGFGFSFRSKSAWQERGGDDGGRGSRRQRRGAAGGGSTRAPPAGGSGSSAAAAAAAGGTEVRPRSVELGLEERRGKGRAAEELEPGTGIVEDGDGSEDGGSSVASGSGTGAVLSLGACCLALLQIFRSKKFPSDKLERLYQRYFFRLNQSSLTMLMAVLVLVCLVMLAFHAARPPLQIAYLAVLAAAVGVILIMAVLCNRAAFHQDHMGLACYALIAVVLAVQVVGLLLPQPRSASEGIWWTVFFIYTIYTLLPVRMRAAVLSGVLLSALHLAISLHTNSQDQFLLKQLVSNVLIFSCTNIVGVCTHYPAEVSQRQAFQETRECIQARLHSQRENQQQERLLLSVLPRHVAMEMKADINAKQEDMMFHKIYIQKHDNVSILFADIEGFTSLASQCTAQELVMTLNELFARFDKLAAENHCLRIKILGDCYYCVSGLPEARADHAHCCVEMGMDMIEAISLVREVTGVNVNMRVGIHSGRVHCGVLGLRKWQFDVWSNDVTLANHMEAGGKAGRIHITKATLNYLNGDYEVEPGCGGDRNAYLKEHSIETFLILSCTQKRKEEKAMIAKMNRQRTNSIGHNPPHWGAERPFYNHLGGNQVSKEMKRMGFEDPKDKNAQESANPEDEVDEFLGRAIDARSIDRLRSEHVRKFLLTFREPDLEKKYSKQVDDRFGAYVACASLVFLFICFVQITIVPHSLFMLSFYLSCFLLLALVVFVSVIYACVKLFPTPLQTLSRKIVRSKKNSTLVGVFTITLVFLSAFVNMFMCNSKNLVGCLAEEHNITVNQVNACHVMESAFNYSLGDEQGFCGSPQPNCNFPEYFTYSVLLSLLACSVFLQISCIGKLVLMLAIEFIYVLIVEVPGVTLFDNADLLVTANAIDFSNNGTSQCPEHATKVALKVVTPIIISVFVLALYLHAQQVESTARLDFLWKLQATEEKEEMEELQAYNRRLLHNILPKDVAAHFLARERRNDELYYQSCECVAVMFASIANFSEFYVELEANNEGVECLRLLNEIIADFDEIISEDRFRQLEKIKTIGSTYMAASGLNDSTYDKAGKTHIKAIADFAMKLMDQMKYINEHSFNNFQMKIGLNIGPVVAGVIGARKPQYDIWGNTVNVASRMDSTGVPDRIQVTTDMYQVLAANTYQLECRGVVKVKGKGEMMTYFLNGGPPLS

Legend:
[1] = target: L-type Ca2+ channel CaV1.2, human (human (endogenous in adipose arterial myocytes)) (UniProt Q13936); assay: proximity ligation; Duolink in situ PLA on freshly dissociated human male and female adipose arterial myocytes, fixed with 3% glyoxal and permeabilised; two primary antibodies; signal when proteins are within 40 nm; puncta per cell area
[2] = target: T1, P2Y11 receptor, human (human (endogenous in adipose arterial myocytes)) (UniProt Q96G91); assay: as above
T1 sequence: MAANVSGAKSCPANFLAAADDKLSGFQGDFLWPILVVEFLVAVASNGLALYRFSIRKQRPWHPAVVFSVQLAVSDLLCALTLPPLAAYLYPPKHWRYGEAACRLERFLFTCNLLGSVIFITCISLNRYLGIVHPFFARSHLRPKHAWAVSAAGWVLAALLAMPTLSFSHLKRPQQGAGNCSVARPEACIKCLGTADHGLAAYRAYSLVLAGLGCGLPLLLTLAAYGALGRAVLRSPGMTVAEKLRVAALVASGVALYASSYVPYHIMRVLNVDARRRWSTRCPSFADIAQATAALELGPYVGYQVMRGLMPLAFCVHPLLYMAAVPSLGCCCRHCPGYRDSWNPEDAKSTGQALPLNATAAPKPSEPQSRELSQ

[3] = target: adenylyl cyclase 5 (AC5), human (human (endogenous in adipose arterial myocytes)) (UniProt O95622); assay: as above
[4] = target: T2, A-kinase anchoring protein 5 (AKAP5), mouse (mouse (endogenous in cerebral arterial myocytes)) (UniProt D3YVF0); assay: proximity ligation; Duolink in situ PLA on freshly dissociated cerebral arterial myocytes of wild-type and AKAP5-/- mice, fixed with 3% glyoxal and permeabilised; two primary antibodies; signal when proteins are within 40 nm; puncta per cell area
T2 sequence: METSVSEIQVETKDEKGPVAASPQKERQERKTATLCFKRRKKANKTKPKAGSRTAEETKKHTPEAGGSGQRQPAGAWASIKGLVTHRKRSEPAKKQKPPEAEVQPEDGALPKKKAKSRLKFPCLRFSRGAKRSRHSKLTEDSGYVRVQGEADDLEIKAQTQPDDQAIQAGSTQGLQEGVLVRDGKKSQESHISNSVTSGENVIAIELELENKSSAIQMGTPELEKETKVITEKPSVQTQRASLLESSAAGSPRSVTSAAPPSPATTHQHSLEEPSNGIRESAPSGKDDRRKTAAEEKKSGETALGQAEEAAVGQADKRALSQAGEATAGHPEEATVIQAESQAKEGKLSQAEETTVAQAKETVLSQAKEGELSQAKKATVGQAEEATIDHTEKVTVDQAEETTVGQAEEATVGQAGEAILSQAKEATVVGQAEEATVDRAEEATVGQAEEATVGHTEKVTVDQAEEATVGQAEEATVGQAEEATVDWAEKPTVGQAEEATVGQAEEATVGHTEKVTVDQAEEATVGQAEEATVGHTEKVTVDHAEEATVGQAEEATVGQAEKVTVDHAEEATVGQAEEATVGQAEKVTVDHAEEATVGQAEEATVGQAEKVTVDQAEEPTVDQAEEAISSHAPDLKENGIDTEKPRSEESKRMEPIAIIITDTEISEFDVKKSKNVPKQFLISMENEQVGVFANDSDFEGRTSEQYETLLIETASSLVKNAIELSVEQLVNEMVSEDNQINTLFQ

binding [2]	binding [3]	binding [4]	Substance	binding [1]
binds	binds	–	A-kinase anchoring protein 5 (AKAP5), human (from UniProt P24588 1-427)	binds
–	–	binds	L-type Ca2+ channel CaV1.2, mouse (from UniProt Q01815 1-2139)	–
–	–	binds	adenylyl cyclase 5 (AC5), mouse (from UniProt P84309 1-1262) (enzyme)	–
